Measurements published in paper doi:10.1101/2023.09.13.556486.

By UniProt entry, the sequences of proteins in these tests, tags left out. Where a name states a change or a piece, a line headed by the entry shows the natural chain unless it says otherwise.
UniProt Q14669: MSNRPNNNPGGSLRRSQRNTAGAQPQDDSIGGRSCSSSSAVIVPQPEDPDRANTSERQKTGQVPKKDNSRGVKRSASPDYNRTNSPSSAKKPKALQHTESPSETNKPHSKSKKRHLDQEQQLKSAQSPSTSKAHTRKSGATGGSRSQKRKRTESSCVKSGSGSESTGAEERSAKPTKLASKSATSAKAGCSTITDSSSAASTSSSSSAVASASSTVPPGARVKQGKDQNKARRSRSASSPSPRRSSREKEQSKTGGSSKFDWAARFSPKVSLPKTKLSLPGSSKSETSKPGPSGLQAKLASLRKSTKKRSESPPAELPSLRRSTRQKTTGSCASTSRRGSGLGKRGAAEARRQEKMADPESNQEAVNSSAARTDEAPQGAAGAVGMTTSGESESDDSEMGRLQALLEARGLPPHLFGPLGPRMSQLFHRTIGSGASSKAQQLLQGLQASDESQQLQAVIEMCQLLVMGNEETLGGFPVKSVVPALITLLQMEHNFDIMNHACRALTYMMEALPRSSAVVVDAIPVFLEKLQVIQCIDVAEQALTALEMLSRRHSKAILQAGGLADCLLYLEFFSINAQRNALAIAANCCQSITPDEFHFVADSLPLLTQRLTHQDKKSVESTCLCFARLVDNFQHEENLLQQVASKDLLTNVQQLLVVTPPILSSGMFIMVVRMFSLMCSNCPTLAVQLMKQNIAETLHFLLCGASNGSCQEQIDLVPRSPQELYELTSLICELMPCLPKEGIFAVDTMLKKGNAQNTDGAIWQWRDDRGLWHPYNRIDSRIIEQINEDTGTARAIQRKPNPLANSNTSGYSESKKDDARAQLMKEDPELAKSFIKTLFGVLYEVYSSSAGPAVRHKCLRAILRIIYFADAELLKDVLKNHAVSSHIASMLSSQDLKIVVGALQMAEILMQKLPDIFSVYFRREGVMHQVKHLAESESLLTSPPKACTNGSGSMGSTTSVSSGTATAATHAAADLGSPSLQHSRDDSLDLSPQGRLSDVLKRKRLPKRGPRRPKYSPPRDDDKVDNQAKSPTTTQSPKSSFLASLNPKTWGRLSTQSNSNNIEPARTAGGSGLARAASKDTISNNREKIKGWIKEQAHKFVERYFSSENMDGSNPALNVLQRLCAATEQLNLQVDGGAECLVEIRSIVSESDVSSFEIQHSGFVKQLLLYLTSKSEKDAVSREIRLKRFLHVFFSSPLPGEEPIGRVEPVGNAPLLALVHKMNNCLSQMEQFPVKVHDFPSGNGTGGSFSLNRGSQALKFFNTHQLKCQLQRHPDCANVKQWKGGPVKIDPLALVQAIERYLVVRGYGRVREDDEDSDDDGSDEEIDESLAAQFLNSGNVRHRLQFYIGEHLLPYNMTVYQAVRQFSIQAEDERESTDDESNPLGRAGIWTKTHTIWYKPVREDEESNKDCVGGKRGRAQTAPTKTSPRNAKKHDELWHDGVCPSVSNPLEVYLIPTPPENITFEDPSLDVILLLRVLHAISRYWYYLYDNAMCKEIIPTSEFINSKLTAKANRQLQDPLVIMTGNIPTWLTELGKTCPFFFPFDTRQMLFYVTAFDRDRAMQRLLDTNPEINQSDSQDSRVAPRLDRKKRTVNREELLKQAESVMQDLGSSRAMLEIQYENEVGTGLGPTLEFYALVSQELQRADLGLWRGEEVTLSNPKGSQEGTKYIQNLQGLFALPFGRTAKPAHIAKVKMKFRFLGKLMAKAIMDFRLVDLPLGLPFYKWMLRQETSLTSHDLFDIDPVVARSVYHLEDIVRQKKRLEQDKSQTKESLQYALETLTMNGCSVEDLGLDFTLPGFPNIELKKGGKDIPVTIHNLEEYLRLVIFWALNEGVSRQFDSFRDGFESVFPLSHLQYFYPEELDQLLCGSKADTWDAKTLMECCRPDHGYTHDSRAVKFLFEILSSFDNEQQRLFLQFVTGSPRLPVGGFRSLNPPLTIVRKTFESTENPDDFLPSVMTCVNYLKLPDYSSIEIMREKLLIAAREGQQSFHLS
UniProt Q14676: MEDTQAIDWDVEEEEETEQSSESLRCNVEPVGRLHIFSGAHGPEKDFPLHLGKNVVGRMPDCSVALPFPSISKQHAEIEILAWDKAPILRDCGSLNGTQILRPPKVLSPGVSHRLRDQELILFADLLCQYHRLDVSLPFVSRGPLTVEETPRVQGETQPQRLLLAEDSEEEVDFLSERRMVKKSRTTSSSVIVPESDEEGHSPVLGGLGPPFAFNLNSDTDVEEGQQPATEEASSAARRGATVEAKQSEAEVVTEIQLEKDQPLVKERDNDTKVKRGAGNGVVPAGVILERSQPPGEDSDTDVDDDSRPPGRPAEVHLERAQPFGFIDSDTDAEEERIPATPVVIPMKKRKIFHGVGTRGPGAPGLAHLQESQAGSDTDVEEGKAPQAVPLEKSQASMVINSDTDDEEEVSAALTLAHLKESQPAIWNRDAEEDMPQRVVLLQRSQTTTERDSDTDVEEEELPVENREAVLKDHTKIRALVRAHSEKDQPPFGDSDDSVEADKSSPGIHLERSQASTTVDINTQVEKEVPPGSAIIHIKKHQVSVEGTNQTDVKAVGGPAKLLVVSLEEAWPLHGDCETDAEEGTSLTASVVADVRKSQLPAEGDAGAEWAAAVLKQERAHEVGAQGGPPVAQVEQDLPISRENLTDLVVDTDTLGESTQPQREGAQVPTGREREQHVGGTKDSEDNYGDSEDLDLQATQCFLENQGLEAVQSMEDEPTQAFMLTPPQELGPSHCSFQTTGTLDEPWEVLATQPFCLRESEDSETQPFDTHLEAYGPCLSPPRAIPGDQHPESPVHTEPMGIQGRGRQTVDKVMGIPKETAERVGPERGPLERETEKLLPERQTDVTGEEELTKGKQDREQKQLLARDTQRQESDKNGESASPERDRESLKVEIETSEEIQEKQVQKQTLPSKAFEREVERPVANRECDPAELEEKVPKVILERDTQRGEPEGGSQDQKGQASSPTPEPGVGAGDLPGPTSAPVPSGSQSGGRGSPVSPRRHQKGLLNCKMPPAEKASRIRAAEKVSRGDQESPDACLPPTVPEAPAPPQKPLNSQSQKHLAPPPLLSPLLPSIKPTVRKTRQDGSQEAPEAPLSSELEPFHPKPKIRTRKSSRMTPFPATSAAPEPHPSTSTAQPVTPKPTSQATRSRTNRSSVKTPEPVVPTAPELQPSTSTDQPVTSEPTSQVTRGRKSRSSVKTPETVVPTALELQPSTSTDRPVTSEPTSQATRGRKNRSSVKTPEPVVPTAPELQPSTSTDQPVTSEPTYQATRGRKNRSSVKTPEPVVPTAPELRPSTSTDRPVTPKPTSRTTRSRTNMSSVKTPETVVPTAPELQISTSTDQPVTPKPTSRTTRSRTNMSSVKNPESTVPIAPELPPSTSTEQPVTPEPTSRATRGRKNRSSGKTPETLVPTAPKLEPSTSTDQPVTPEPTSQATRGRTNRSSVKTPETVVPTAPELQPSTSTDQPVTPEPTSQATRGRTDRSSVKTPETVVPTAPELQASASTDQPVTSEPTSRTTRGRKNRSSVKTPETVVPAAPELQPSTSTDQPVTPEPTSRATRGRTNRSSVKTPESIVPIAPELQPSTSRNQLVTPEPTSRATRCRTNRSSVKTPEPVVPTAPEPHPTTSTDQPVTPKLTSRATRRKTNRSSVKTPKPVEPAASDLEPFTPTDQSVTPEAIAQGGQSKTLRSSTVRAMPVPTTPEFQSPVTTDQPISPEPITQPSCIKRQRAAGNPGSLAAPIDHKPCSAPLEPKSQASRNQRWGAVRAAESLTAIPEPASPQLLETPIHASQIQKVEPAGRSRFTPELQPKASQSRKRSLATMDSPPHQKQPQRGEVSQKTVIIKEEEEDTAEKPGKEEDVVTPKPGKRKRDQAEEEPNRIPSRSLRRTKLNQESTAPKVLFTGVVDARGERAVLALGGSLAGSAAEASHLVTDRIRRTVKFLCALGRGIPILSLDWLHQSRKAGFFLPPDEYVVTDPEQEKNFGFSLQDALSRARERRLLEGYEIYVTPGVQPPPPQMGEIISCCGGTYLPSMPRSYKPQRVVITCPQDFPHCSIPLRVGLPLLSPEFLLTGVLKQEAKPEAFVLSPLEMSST
UniProt Q969G3: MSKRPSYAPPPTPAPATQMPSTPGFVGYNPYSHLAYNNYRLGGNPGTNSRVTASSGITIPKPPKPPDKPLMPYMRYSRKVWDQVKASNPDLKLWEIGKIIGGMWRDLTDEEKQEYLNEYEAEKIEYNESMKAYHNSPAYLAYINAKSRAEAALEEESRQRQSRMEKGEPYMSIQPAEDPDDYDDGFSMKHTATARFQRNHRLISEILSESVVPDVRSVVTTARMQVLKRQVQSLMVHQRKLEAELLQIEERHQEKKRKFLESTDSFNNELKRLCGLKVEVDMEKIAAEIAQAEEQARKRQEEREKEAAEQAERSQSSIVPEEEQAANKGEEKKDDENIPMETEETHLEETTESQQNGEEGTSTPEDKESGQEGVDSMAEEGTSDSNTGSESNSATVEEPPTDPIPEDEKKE
UniProt P45973: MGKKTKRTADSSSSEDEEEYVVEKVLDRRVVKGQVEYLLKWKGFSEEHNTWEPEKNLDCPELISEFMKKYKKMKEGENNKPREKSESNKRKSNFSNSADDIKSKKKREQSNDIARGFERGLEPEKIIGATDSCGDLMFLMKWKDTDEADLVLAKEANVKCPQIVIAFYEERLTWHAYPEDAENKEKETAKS
UniProt P83916: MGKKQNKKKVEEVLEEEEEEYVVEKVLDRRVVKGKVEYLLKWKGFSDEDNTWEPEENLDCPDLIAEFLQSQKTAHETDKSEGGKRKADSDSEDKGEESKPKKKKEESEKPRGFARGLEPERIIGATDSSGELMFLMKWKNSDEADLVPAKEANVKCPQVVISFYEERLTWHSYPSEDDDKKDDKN
UniProt Q13185: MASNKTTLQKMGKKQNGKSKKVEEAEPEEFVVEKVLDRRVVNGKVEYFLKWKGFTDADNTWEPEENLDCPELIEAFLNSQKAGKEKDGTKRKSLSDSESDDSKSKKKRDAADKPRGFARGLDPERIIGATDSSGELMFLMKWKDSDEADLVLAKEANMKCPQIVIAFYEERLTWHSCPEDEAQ

biological target: NBirA*-FLAG-TRIP12 (Thyroid hormone Receptor Interacting Protein 12 fused to the biotin ligase NBirA*(R118G)-FLAG) (human) (UniProt Q14669); assay: proximity labelling

binding, binds:
Mediator of DNA damage checkpoint 1 (MDC1) (from UniProt Q14676 1-2089)
SWI/SNF-Related Matrix-Associated Actin-Dependent Regulator Of Chromatin Subfamily E Member 1 (SMARCE1) (from UniProt Q969G3 1-411)
heterochromatin protein 1 (HP1) isoform α (CBX5) (from UniProt P45973 1-191)
heterochromatin protein 1 (HP1) isoform β (CBX1) (from UniProt P83916 1-185)
heterochromatin protein 1 (HP1) isoform γ (CBX3) (from UniProt Q13185 1-183)

These are yes or no findings as the source states them, for the method shown. Binding seen in cells or lysates may run through a third protein. A yes stands for co-enrichment or nearness to the bait. Other partners may have been found.
